No constants are given. Whether binding was seen depends on the method and setting. Binding seen in cells or lysates may run through a third protein. These calls come from enrichment with a bait or labelling near it, and not all partners need be listed.

The test has as its target T1, TAP-Csm4 (budding yeast (SK1 background)) (UniProt Q08955).
T1 sequence: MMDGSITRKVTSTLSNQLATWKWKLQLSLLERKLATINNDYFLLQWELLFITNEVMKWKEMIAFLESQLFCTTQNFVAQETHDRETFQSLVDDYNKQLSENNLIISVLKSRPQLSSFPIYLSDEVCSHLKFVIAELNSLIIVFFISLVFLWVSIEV
As to the kind of experiment: affinity purification with mass spectrometry; TAP-Csm4 purified from lysate of yeast cells 6 h in synchronous meiosis on Dynabeads cross-linked with rabbit IgG; eluate digested by trypsin, LTQ Orbitrap Velos.

B1: Mps2 (protein, UniProt P53159 1-387)
chain: MSNGAFDAIFEYAWGQIDKPISGDFIYGKDLPKLIEIIENIFQKAQKSGSYELRLPLFSEINKDLFRTFSNTKTFFKIHKEEFDDIFFNLVNHPLREILENAFIGVDSIPSDFIVSMNLNSPSKFLVENKNKNTEGAGISTPRKKLTESPIKLLSRNNIGKALEVQVEELKRELTAKQSLLQENERQVSELKIRLETYQEKYASIQQRFSDLQKARQVEDNQNSSRTSDPGSPLVTGIDQKAILEEFRRRLQRQTDTISFLKDQIRRERGLNCSNDKVSHSKRKHATTDGDGTFKNFISAVPSNIWVKATIRIIVCFALLAGVLPYIRKYVYAHDTPSQNSRLQLSWWENSGILSKIVWFFEDQTDLETEYRSNANVDDAYSRVFGI
For the molecule B1, the binding entry is “binds”.

B2: Get3 (protein, UniProt Q12154 1-354)
chain: MDLTVEPNLHSLITSTTHKWIFVGGKGGVGKTTSSCSIAIQMALSQPNKQFLLISTDPAHNLSDAFGEKFGKDARKVTGMNNLSCMEIDPSAALKDMNDMAVSRANNNGSDGQGDDLGSLLQGGALADLTGSIPGIDEALSFMEVMKHIKRQEQGEGETFDTVIFDTAPTGHTLRFLQLPNTLSKLLEKFGEITNKLGPMLNSFMGAGNVDISGKLNELKANVETIRQQFTDPDLTTFVCVCISEFLSLYETERLIQELISYDMDVNSIIVNQLLFAENDQEHNCKRCQARWKMQKKYLDQIDELYEDFHVVKMPLCAGEIRGLNNLTKFSQFLNKEYNPITDGKVIYELEDKE
Consider B2, for which the binding result is “binds”.

The values above are taken from article PMC7536833.
